Changes are numbered by the printed parent chain. Results are given in words; binding and its absence hold for the method and conditions named. Some results given as binding are weak or reduced against the parent protein; the word gives no strength.
B1: hu98L1H1 (antibody, human IgG1, kappa, V domains shown)
VH: EVQLVESGGGLVQPGGSLRLSCAASGFTFSDYGIHWVRQAPGKGLEWVAYISSGGYTIYYADTVKGRFTISRDNAKNSLYLQMNSLRAEDTAVYYCARGDYDDIFYTMDYWGQGTTVTVSS
VL: DIQMTQSPSSLSASVGDRVTITCRASRDITKFLNWYQQKPGKAPKLLIYYTSRLHSGVPSRFSGSGSGTDFTLTISSLQPEDFATYYCQQGNTLPWTFGGGTKVEIKR
B2: hu98L3H5 (antibody, human IgG1, kappa, V domains shown)
VH: B1 VH with I34M, I58S, D102E
VL: B1 VL with K42G, P44V, F71Y
B3: hu98L3H1 (antibody, human IgG1, kappa, V domains shown)
VH: B1 VH
VL: B1 VL with K42G, P44V, F71Y
B4: hu98L3H4 (antibody, human IgG1, kappa, V domains shown)
VH: B1 VH with I58S, D102E
VL: B1 VL with K42G, P44V, F71Y
B5: hu98L2H1 (antibody, human IgG1, kappa, V domains shown)
VH: B1 VH
VL: B1 VL with P44V, F71Y
B6: hu98L3H2 (antibody, human IgG1, kappa, V domains shown)
VH: B1 VH with D102E
VL: B1 VL with K42G, P44V, F71Y
B7: hu98L2H2 (antibody, human IgG1, kappa, V domains shown)
VH: B1 VH with D102E
VL: B1 VL with P44V, F71Y

Amino acid sequences for entries named in this document (tags omitted). A change or cut given only in a name is not applied to a line headed by its entry.
UniProt Q9NYJ7: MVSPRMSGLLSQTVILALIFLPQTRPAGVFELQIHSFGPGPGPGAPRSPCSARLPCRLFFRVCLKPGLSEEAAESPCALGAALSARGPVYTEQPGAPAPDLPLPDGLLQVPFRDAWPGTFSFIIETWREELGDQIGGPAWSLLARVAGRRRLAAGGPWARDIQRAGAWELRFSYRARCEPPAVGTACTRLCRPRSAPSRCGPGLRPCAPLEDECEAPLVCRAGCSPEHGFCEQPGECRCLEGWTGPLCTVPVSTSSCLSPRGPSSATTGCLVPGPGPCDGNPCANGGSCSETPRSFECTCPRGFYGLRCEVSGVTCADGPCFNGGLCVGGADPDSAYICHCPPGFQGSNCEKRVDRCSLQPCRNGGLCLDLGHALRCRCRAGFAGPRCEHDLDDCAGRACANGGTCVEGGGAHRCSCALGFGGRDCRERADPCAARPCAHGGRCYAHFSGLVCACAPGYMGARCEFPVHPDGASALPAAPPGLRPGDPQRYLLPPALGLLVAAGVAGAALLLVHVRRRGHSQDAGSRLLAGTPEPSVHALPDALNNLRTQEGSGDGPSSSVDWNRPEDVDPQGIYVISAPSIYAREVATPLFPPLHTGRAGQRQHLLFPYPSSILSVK

Molecular target: human DLL3 on cells (human) (UniProt Q9NYJ7)
Assay: flow cytometry

binding	Binder
binds	B1
binds	B2
binds	B3
binds	B4
binds	B5
binds	B6
binds	B7
